Laboratory results published in PubChem BioAssay AID2685 (National Center for Advancing Translational Sciences (NCATS), 2010).
This is one part of the list. Further columns of the screen follow, without active or inactive calls. The list favours compounds with an active or inconclusive main result. Potencies come from curve fits of mixed quality, noted in brackets.

Assay: qHTS Assay for Lipid Storage Modulators in Drosophila S3 Cells;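 on cell number change: cells counted by Cell Tracker Red CMTPX staining in the red channel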
Settings: BODIPY lipid droplet fluorescence, 18-24 h; for cell number change: measured here: cell count max response, cells fed with added oleic acid
Procedure, shortened: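 Laser-scanning cytometry quantifies lipid droplet accumulation (500–530 nm total intensity; droplet/cell object ratio) in oleic acid-fed (400 uM added) Drosophila S3 cells treated with a concentration series. 20 uM Triacsin C defined 100% inhibition.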

[1] = measured here: lipid fluorescence (Fed channel) AC50, cells fed with added oleic acid
[2] = measured here: cell number channel AC50, cells fed with added oleic acid

Compound	cell number change	AC50 [1]	AC50 [2]
Cc1cc(NC(=O)c2ccc(F)cc2)n(-c2ccccc2)n1	-9.72%	29.1 µM [rising, single point]	
O=C(CSc1nc2ccccc2[nH]1)Nc1nc(-c2cccc(Br)c2)cs1	-50.6%	20.6 µM [falling, single point]	20.6 µM [falling, single point]
OCCN1CCN(c2cc(C(F)(F)F)nc3ccccc23)CC1	-2.27%	2.91 µM [rising, single point]	
Cc1cc(C)cc(NC(=O)COC(=O)CNC(=O)C2CCCCC2)c1	-12.6%	0.651 µM [falling, full curve]	0.0731 µM [falling, full curve, poor fit]
COc1ccc(CC(=O)Nc2nc(-c3cccc([N+](=O)[O-])c3)cs2)cc1	-28.2%		
O=C(Nc1ccccc1F)N(CCCN1CCOCC1)Cc1cc2cc3c(cc2[nH]c1=O)OCCO3	44.2%	29.1 µM [rising, single point]	18.4 µM [rising, single point]
COc1ccc(-n2c(SCC(=O)N(C)c3ccccc3)nc3c([nH]c4ccccc43)c2=O)cc1OC	22.6%	7.31 µM [rising, full curve, poor fit]	
COc1cccc(C(=O)NCc2ccc3c(c2)OCO3)c1OC	5.22%	18.4 µM [rising, single point]	
O=C(Cc1cccc(NC(=O)C2CCN(C(=O)C3CCC3)CC2)c1)Nc1cccc(C(=O)N2CCCC2)c1	-4.09%	6.51 µM [falling, single point]	0.00517 µM [falling, full curve, poor fit]
COc1cccc(OCCCCSc2ncccn2)c1	26.1%		
Cc1cccc(C(=O)Nc2ccnc(-c3ccncc3)n2)c1	-22.6%		
Cc1ccc2c(c1)cc1c(=O)n(CC(=O)NCCN3CCCC3)nc(C)n12	-16.2%		
O=C(NCCCNC(=O)c1ccc(Cl)cc1Cl)c1ccccn1	12.4%	6.51 µM [falling, single point]	
CN(Cc1nnc(SCC(=O)NCCc2ccccc2)n1C)S(=O)(=O)c1ccccc1	-51.6%	3.66 µM [falling, partial curve, poor fit]	20.6 µM [falling, partial curve]
Nc1nnc(CCS(=O)(=O)c2cc(Cl)ccc2Cl)s1	50.5%		29.1 µM [rising, single point]
O=C(COC(=O)C1CC1)Nc1ccc(Cl)cn1	27.1%	7.31 µM [rising, partial curve, poor fit]	

3 compounds already listed, sorted by count of non-hydrogen atoms, descending.
Compound	cell number change	AC50 [1]	AC50 [2]
O=C(Nc1ccccc1F)N(CCCN1CCOCC1)Cc1cc2cc3c(cc2[nH]c1=O)OCCO3	44.2%	29.1 µM [rising, single point]	18.4 µM [rising, single point]
Cc1ccc2c(c1)cc1c(=O)n(CC(=O)NCCN3CCCC3)nc(C)n12	-16.2%		
O=C(NCCCNC(=O)c1ccc(Cl)cc1Cl)c1ccccn1	12.4%	6.51 µM [falling, single point]	
